No constants are given. Whether binding was seen depends on the method and setting. A result given as binding can be weak or reduced; the word gives no strength.
Biological target: Ms2 (=PG5_(P1593S)) protein (Triticum aestivum (common wheat))
Experiment: two-hybrid; pairwise yeast two-hybrid with AD (pGADT7) and BD (pGBKT7) fusions; DDO, TDO and QDO media

- binding: binds
Substance: ms2 (=PG5_(P1076F)) protein (from UniProt A0A1D5Y5U2)

Reference: paper PMC5414350
